We go through 3 substances from PMC7206099.

The chains behind the UniProt entries cited, without tags or fusion partners. Where a name states a change or a piece, a line headed by the entry shows the natural chain unless it says otherwise. A line that says so, or that is headed by a name, gives the form on record, which may keep a tag or linker. Residues count along the entry.
UniProt Q14694: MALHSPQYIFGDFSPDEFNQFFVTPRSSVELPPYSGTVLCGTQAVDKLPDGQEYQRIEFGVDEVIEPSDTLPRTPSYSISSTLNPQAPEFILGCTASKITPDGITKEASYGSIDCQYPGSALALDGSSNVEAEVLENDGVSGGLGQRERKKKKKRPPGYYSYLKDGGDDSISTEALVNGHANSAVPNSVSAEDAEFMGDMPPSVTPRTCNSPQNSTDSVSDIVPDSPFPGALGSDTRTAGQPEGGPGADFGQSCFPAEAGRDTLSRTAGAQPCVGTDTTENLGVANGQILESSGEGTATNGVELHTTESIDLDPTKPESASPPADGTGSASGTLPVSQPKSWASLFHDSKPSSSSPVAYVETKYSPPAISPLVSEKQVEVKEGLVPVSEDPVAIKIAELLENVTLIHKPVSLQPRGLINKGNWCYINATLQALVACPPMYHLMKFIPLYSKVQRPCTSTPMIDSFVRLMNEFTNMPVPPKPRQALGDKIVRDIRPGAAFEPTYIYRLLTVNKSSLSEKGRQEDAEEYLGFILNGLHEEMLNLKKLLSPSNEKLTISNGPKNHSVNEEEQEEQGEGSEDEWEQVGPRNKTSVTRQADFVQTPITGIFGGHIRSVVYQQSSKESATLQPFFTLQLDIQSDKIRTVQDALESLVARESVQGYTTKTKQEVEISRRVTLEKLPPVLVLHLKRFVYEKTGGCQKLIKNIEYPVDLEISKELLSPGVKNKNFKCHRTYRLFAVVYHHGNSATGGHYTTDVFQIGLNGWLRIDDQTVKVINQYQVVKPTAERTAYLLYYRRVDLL
USP10 very C-terminal region (amino acids 700–798), Flag-tagged deletion mutant: residues 700-798 of Q14694
UniProt Q9UBN7: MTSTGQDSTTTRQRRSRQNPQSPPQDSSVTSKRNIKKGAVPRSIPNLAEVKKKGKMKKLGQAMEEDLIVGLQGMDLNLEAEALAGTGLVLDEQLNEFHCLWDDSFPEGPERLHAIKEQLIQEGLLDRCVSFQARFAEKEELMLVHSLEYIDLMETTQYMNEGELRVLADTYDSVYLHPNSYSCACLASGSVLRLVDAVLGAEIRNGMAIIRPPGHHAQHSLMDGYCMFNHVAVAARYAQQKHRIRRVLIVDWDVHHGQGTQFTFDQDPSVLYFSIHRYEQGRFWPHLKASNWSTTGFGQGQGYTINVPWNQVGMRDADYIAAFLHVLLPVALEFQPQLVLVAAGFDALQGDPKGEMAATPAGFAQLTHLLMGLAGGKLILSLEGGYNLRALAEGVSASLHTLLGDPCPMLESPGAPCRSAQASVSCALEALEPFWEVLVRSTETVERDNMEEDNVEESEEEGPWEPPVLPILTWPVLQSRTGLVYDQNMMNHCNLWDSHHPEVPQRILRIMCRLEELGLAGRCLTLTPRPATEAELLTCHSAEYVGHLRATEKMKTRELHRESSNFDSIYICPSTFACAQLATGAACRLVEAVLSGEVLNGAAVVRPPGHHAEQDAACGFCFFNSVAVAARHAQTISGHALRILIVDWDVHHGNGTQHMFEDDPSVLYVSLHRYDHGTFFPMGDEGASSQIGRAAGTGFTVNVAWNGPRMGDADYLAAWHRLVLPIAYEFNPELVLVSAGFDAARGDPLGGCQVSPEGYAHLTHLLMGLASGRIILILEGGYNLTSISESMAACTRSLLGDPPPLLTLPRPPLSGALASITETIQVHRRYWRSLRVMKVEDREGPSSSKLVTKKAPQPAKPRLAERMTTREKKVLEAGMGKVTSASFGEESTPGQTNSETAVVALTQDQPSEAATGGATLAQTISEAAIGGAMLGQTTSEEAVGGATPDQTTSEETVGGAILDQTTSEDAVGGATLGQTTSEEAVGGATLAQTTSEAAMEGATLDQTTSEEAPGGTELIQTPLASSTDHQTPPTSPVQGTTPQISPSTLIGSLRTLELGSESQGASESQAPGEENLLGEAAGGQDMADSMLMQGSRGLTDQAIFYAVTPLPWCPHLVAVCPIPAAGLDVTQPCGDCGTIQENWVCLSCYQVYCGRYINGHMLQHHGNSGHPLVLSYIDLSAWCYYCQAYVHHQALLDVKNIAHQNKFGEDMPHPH

Results are given in words; binding and its absence hold for the method and conditions named. In cells and extracts the contact can be indirect. Some entries that bind do so weakly or less than the wild type.

For assay [1], the target named is Ubiquitin-specific peptidase 10 (USP10), endogenous (human (endogenous in H23)) (UniProt Q14694). Briefly: co-IP; endogenous proteins, H23 lysate (20 mM Tris-HCl pH 7.5, 150 mM NaCl, 1 mM EDTA, 1 mM EGTA, 1% Triton X-100, 10% glycerol); primary antibody 12 h at 4 °C, protein A or G beads; Western blot.
The target in assay [2] is USP10 very C-terminal region (amino acids 700–798), Flag-tagged deletion mutant (UniProt Q14694). Nature of the assay: co-IP; Flag- and HA-tagged plasmids co-transfected in 293T cells; anti-Flag M2 agarose about 4 h at 4 °C; anti-HA Western blot. Background: In western blotting, separated proteins are transferred to a membrane and probed.
The target of assay [3] is Flag-USP10 (UniProt Q14694). Described as above.
In assay [4] the target is USP10 (co-precipitation with p53, data not shown) (UniProt Q14694). Briefly: co-IP; USP10-HDAC6 co-precipitation with p53; preliminary data, data not shown.

In the case of “histone deacetylase 6 (HDAC6), endogenous (from UniProt Q9UBN7 1-1215)”, in assay [1], the binding entry is on record as “binds”.
Turning to “HA-HDAC6 (from UniProt Q9UBN7 1-1215) (enzyme)”, the binding result in assay [2] and in assay [3] was “binds” each time.
As to “HDAC6 (co-precipitation with p53, data not shown) (from UniProt Q9UBN7 1-1215) (enzyme)”, in assay [4], the binding result is on record as “binds”.
